{
  "source": "paper doi:10.1101/2020.12.25.424096",
  "biological_target": "T1, C1 esterase inhibitor (C1-Inh) (UniProt P05155)",
  "T1 sequence": "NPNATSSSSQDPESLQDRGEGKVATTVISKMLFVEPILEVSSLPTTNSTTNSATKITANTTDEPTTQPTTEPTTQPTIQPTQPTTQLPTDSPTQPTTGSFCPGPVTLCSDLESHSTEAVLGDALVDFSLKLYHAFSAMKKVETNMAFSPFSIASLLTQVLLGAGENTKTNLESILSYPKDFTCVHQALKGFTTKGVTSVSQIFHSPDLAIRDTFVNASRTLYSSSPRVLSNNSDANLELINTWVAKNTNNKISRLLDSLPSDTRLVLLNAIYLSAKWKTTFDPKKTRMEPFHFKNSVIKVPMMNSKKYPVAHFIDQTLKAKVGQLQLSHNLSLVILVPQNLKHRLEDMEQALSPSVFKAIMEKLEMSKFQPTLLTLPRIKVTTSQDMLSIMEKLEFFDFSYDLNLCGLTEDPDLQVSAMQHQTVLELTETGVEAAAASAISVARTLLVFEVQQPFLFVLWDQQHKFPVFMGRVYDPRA",
  "test": "ELISA",
  "note": "These are yes or no findings as the source states them, for the method shown. A result given as binding can be weak or reduced; the word gives no strength.",
  "data": [
    {"substance": "passenger domain of Vag8 (Vag8p), recombinant Vag8 protein (from UniProt Q79GN7) (domain or fragment)", "values": [
      {"measurement": "binding", "result": "binds"}
    ]}
  ]
}
